Measured data: PubChem BioAssay AID1159593 (NIAID, 2016)

- Screen: 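Knock-downs that alter LPS-induced nuclear entry of p65 in mouse macrophages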
- Cells: RAW264.7 macrophages of mouse, with reporters for p65 (GFP) and the Tnf promoter (mCherry)
- Reagent: single siRNA against mouse genes
- Timing: 48 to 72 hours after siRNA transfection, then LPS for 40 min
- Treatment: LPS (Salmonella minnesota R595) for 40 min before fixation; dose not given
- Measured: 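High-content imaging of GFP-p65 moving into nuclei after 40 min LPS, plate median/MAD normalised, replicate mean of robust z-score relative to negative controls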
- Direction: p65 translocation z-score: higher = more nuclear NF-kappaB p65 after LPS
- Call rule: 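z scored in tiers by size in both directions (1, 1.5, 2, 2.5); stated active cut-off missing, but called actives lie near absolute z 1.5 or above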
- Meaning of the calls: active = changed p65 translocation (either direction); inactive = no clear change
Shown is a random part of 756 deposited reagents. Over the whole deposit, 137 (18%) got an active call. 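Active means p65 translocation went either up or down; genes were judged on the median of six siRNAs, not single siRNAs.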 A number with no mark means an inactive call. Reagents against one gene are numbered here. No sequences are given here. Not stated in the record: the amount of reagent.

Gene,siRNA no.,p65 translocation z-score
Cd180,1,-2.05 (active)
Cd180,2,0.64
Cd180,3,0.936
Cd180,4,0.275
Cd180,5,-1.31
Cd180,6,0.247
Ikbke,1,-0.738
Ikbke,2,-0.85
Ikbke,3,-1.29
Ikbke,4,0.233
Ikbke,5,1.1
Ikbke,6,-0.808
Egr2,1,-1.15
Egr2,2,-0.243
Egr2,3,-1.98 (active)
Egr2,4,-0.968
Egr2,5,0.838
Egr2,6,-1.09
Atf2,1,-1.38
Atf2,2,-0.87
Atf2,3,0.105
Atf2,4,-1.35
Atf2,5,0.816
Atf2,6,0.443
Il1rl1,1,-0.421
Il1rl1,2,-1.24
Il1rl1,3,-0.846
Il1rl1,4,-1.28
Il1rl1,5,-1.7 (active)
Il1rl1,6,-1.29
Ptpn6,1,0.00781
Ptpn6,2,0.386
Ptpn6,3,-2.82 (active)
Ptpn6,4,-1
Ptpn6,5,1.67 (active)
Ptpn6,6,-2.2 (active)
Akt3,1,0.721
Akt3,2,0.363
Akt3,3,-0.422
Akt3,4,-0.731
Akt3,5,-0.917
Akt3,6,-0.973
Cxcl9,1,-0.554
Cxcl9,2,-0.935
Cxcl9,3,-0.328
Cxcl9,4,-0.818
Cxcl9,5,-0.725
Cxcl9,6,-0.415

A few values from the list:
Under “p65 translocation z-score”, Akt3 #2 has 0.363
Result of Egr2 #1 in “p65 translocation z-score”: -1.15
Result of Ptpn6 #6 under “p65 translocation z-score”: -2.2 (active)
For “p65 translocation z-score”, Ptpn6 #1 reads 0.00781
Il1rl1 #2, p65 translocation z-score → -1.24
Value of Egr2 #3 in “p65 translocation z-score”: -1.98 (active)
